The match of structure and compound is tentative.
Tests used:
mouse spleen cells = assay: Spleen IL-2 ELISA assay (IL-2 secretion after Concanavalin A); conditions: highest signal vs 0.1% DMSO, at compound concentration 10 μM, ConA, 24 h
Method: Test Example 3: Detection of Compound's Activating Ability to Secrete Cytokine Interleukin-2 (IL-2) from Mouse Spleen Cells (Method 3)
The specific operation is as follows: the compound powder was dissolved in DMSO to 10 mM, 2 μl of the compound was added to 998 μl of RPMI 1640 medium (contained 10% FBS in this test), and the highest concentration point was obtained after vortexing. The compound solution was gradually diluted 3 times with 0.2% DMSO medium, with a total of 8 concentration points. That treated with RPMI 1640 medium solution containing 0.1% DMSO was used as a control. Add 10^5 mouse spleen cells to each well of Corning 96-well cell culture plate (product number: 3599), then add an equal volume of compound dilution, add RPMI 1640 medium containing 0.2% DMSO to the control group, and place the cells at 37° C. to incubate for 1 h in a cell culture incubator (Thermo Fisher Scientific, model: 3111). Then add Concanavalin A at a final concentration of 0.4 μg/ml and place in a cell culture incubator at 37° C. for 24 hours. Mouse IL-2 DuoSet ELISA KIT was used to detect the IL-2 content in the cell supernatant, and the Mouse […] DuoSet ELISA detection was carried out according to the operating instructions of the kit. Data are described as the highest fold ratio of the stimulated signal of the compound to the signal of 0.1% DMSO.

DC2.4 cells = assay: DC2.4 IL-6 ELISA assay (IL-6 secretion after LPS); conditions: highest signal vs 0.1% DMSO, at compound concentration 3.33 μM, 24 h
Method: Test Example 4: Detection of Compound's Activating Ability to Stimulate DC2.4 Cells to Secrete Cytokine Interleukin-6 (IL-6) ([…])
The specific operation is as follows: the compound powder was dissolved in DMSO to 10 mM, 2 μl of the compound was added to 998 μl of RPMI 1640 medium (contained 10% FBS in this test), and the highest concentration point was obtained after vortexing. The compound solution was gradually diluted 3 times with 0.2% DMSO medium, with a total of 8 concentration points. That treated with RPMI 1640 medium solution containing 0.1% DMSO was used as a control. Add 10^5 DC2.4 cells to each well of Corning 96-well cell culture plate (product number: 3599), then add an equal volume of compound dilution, add RPMI 1640 medium containing 0.2% DMSO to the control group, and place the cells at 37° C. to incubate for 1 h in an incubator (Thermo Fisher Scientific, model: 3111). Subsequently, LPS was added at a final concentration of 3.2 ng/ml, and placed in a cell culture incubator at 37° C. for 24 hours. Mouse IL-6 DuoSet ELISA KIT was used to detect the IL-6 content in the cell supernatant, and the Mouse […] DuoSet ELISA detection was carried out according to the operating instructions of the kit. Data are described as the highest fold ratio of the stimulated signal of the compound to the signal of 0.1% DMSO.

PBMC = PBMC IL-2 ELISA assay (IL-2 secretion after anti-CD3/anti-CD28); conditions: highest signal vs 0.1% DMSO, at compound concentration 3.3 μM, anti-CD3/CD28, 24 h
Method: Test Example 5: Detection of Compound's Activating Ability to Secrete Cytokine Interleukin-2 (IL-2) from PBMC (Method 5)
The specific operation is as follows: the compound powder was dissolved in DMSO to 10 mM, 2 μl of the compound was added to 998 μl of RPMI 1640 medium (contained 10% FBS in this test), and the highest concentration point was obtained after vortexing. The compound solution was gradually diluted 3 times with 0.2% DMSO medium, with a total of 8 concentration points. That treated with RPMI 1640 medium solution containing 0.1% DMSO was used as a control. 1×10˜ 5 PBMC cells were added to each well of Corning 96-well cell culture plate (item number: 3599), and then the same volume of compound diluent was added to the control group. RPMI 1640 medium containing 0.2% DMSO was added to the control group and incubated in a 37° C. cell incubator (Thermo Fisher Scientific, model: 3111) for 1 hour. Then add Anti-human CD3 Antibody and 1 μg/ml Anti-human CD28 Antibody at a final concentration of 0.1 μg/ml, and place in a 37° C. cell culture incubator to incubate for 24 hours. The Human IL-2 DuoSet ELISA KIT was used to detect the IL-2 content in the cell supernatant, and the Human IL-2 DuoSet ELISA detection was performed according to the operating instructions of the kit. […]

With CCOc1nc2c(cc1Nc1ncc3ccnc(N[C@@H]4CC[C@@H](O)C4)c3n1)CN(C)CC2 (relative stereo) the “% IL-2 increased (relative to DMSO control)” value (mouse spleen cells) was 200%, the “% IL-6 increased (relative to DMSO control)” value (DC2.4 cells) was 381.00% and the “% IL-2 increased (relative to DMSO control)” value (PBMC) was 217%.
